The subject of the assay is HEK293A TEAD-LUC reporter. Briefly: TEAD-luciferase reporter activity (YAP activation), robust Z score vs plate; higher = stronger YAP/TEAD activation. As to conditions: 24 h. For orientation: A reporter such as luciferase makes a cellular process visible.

Structures can show the parent of a compound that is named as a salt. This is one part of the list. Single values are uncertain here, since repeats match poorly.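 In a drug-repurposing library screen, luminescence reads luciferase driven by eight TEAD-binding elements, stably integrated into human kidney-derived cells. Compounds scoring over five robust Z scores above the plate mean are called hits.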

With `CN(C)CCCO[C@@H]1[C@H]2OC(C)(C)O[C@H]2O[C@@H]1[C@H](O)CO` [Amiprilose], the TEAD-luciferase reporter activity was inactive: -0.887 (compound concentration: 200 nM), inactive: -0.599 (compound concentration: 2 uM) and inactive: -1.81 (compound concentration: 10 uM).
The like results for `CCC[C@@H]1O[C@@H]2C[C@H]3[C@@H]4C[C@H](F)C5=CC(=O)CC[C@]5(C)[C@@]4(F)[C@@H](O)C[C@]3(C)[C@]2(C(=O)S[C@@H]2CCOC2=O)O1` were, in that order, inactive: -1.03, inactive: -0.055 and inactive: 3.2.
The like results for `Cc1scc2c1N(C(=O)CN1CCN(C)CC1)c1ccccc1NC2=O` [Telenzepine hydrochloride] were, in that order, inactive: -1.45, inactive: -0.713 and inactive: 0.769.
On to `CN[C@@H](C)C(=O)N[C@H](C(=O)N1CCC[C@H]1C(=O)Nc1sc(-c2ncco2)nc1-c1ccccc1)C1CCCCC1`, for which the TEAD-luciferase reporter activity is inactive: 0.864 (compound concentration: 200 nM), active: 6.2 (compound concentration: 2 uM) and inactive: -0.62 (compound concentration: 10 uM).
Turning to `CCCN1CC[C@H]2c3c(cccc3C(N)=O)CC[C@H]21`, the TEAD-luciferase reporter activity is, setting by setting: (compound concentration: 200 nM) inactive: 0.495; (compound concentration: 2 uM) inactive: -1.14; (compound concentration: 10 uM) inactive: -1.68.
In the same order, the values of `O=C(CCc1ccc(O)cc1)c1c(O)cc(O)cc1O` [Phloretin] are inactive: -0.724, inactive: -2.55 and inactive: -1.99.
The like results for `CCOC(=O)C(=Cc1ncc([N+](=O)[O-])n1C)C(C)=O` [Propenidazole] were, in that order, inactive: -1.74, inactive: -1.4 and inactive: -0.524.
`Cc1ccc(Cl)c(Nc2ccccc2C(=O)O)c1Cl` [Meclofenamate sodium]: the TEAD-luciferase reporter activity (compound concentration: 200 nM) was inactive: -1.78 and the TEAD-luciferase reporter activity (compound concentration: 10 uM) was inactive: 2.91.
Turning to `Cc1ccc(Cl)c(Nc2ccccc2C(=O)O)c1Cl` [meclofenamate sodium], the TEAD-luciferase reporter activity (compound concentration: 2 uM) was inactive: -0.831.
In the case of `COc1cc(/C=C/C(=O)O[C@H]2CC[C@]34CC35CC[C@]3(C)[C@@H]([C@H](C)CCC=C(C)C)CC[C@@]3(C)C5CCC4C2(C)C)ccc1O` (stereo partly specified), the TEAD-luciferase reporter activity was inactive: 0.541 (compound concentration: 200 nM), inactive: 2.19 (compound concentration: 2 uM) and inactive: 0.0531 (compound concentration: 10 uM).
In the same order, the values of `C[C@@H]1OC(=O)N[C@@H]1C(=O)N[C@@H](Cc1cscn1)C(=O)N1CCC[C@H]1C` [Rovatirelin] are inactive: -0.761, inactive: -0.688 and inactive: 0.109.
In the same order, the values of `CCCNC(C)C(=O)Nc1c(C)csc1C(=O)OC` (stereo unspecified) [Articaine hydrochloride] are inactive: -1.54, inactive: 1.24 and inactive: 0.628.
Regarding `C[C@@H]1C[C@H]2[C@@H]3CCC4=CC(=O)C=C[C@]4(C)[C@@]3(Cl)[C@@H](O)C[C@]2(C)[C@@]1(O)C(=O)CO` [beclometasone, Alza], the TEAD-luciferase reporter activity by setting is: (compound concentration: 200 nM) inactive: 0.133; (compound concentration: 2 uM) inactive: 0.167; (compound concentration: 10 uM) inactive: -0.165.
Turning to `Cc1ncc(CO)c(CO)c1O` [Pyridoxine], the TEAD-luciferase reporter activity (compound concentration: 200 nM) is inactive: -0.957, the TEAD-luciferase reporter activity (compound concentration: 2 uM) is inactive: -1.3 and the TEAD-luciferase reporter activity (compound concentration: 10 uM) was inactive: 2.81.
In the same order, the values of `COc1ccc2c(c1)C(/C=C/C(C)=C/C(=O)O)=CC(C)(C)CO2` are inactive: -1.22, inactive: 0.0481 and inactive: -0.057.
In the same order, the values of `Cc1cc(C(=O)Nc2cc(Nc3ccc4c(/C=C/c5ccccn5)n[nH]c4c3)ccc2F)n(C)n1` are inactive: -0.502, inactive: -1.33 and inactive: 1.35.
In the same order, the values of `CC(C)OCCn1c(=S)[nH]c(=O)c2[nH]ccc21` are inactive: -1.11, inactive: 0.965 and inactive: 0.417.
With `CCn1ncnc1COc1nn2c(-c3ccccc3F)nnc2cc1C(C)(C)C`, the TEAD-luciferase reporter activity by setting is: (compound concentration: 200 nM) inactive: 0.0269; (compound concentration: 2 uM) inactive: 0.264; (compound concentration: 10 uM) inactive: -0.78.
The like results for `CC1CN(c2cc3c(cc2F)c(=O)c(C(=O)O)cn3C(C)(C)C)CCN1` (stereo unspecified) were, in that order, inactive: 1.78, inactive: 0.188 and inactive: -1.92.
As for `COCCCNC(=O)c1c[nH]c2ncccc12`, the TEAD-luciferase reporter activity is, setting by setting: (compound concentration: 200 nM) active: 5.75; (compound concentration: 10 uM) inactive: 0.739.
In the case of `CC1(C)CN(CC(=O)N2CCCC2)[C@H](C(=O)Nc2cc(Cl)cc3c2[nH]c2cnccc23)CO1`, the TEAD-luciferase reporter activity runs as follows: (compound concentration: 200 nM) inactive: -1.16; (compound concentration: 2 uM) inactive: -0.0157; (compound concentration: 10 uM) inactive: 1.54.
With `CC1(CS(=O)(=O)N2CCC(c3ccc(F)cc3)CC2)NC(=O)NC1=O` (stereo unspecified), the TEAD-luciferase reporter activity is, setting by setting: (compound concentration: 200 nM) inactive: 0.932; (compound concentration: 2 uM) inactive: -0.627; (compound concentration: 10 uM) inactive: -0.148.
The like results for `CCCC(=O)NCc1ccc(C(F)(F)F)cc1` were, in that order, inactive: 1.1, inactive: 1.3 and inactive: -0.251.
The like results for `Cc1cc(Nc2ncc(Cl)c(Nc3ccccc3S(=O)(=O)C(C)C)n2)c(OC(C)C)cc1C1CCNCC1` [Ceritinib] were, in that order, inactive: -1.37, inactive: 0.318 and inactive: -0.686.
In the same order, the values of `C[C@@]1(O)[C@H](O)[C@@H](CO)O[C@H]1n1ccc(N)nc1=O` are inactive: 0.612, inactive: -0.758 and inactive: 0.402.
Take `O=c1ncn2nc(Sc3ccc(F)cc3F)ccc2c1-c1c(Cl)cccc1Cl`: the TEAD-luciferase reporter activity was inactive: 0.165 (compound concentration: 200 nM), inactive: -1.85 (compound concentration: 2 uM) and inactive: -1.08 (compound concentration: 10 uM).
For `[O]=[Mn](=[O])(=[O])[O-]`, the TEAD-luciferase reporter activity by setting is: (compound concentration: 200 nM) inactive: -1.59; (compound concentration: 10 uM) inactive: 1.11.
In the case of `CCOC(=O)/C=C1\CC(C)(CC)CC(=O)N1Cc1ccc(-c2ccccc2-c2nn[nH]n2)cc1` (stereo unspecified), the TEAD-luciferase reporter activity is inactive: -1.08 (compound concentration: 200 nM), inactive: 0.577 (compound concentration: 2 uM) and inactive: 0.378 (compound concentration: 10 uM).
The like results for `O=C(c1ccc(O)c(Cl)c1)N1CCOc2ccccc21` were, in that order, inactive: -2.45, inactive: -0.423 and inactive: -0.9.
In the same order, the values of `O=C(N[C@@H](Cc1ccccc1)C(=O)O)c1ccc(-c2ccc(C(F)(F)F)cc2)cc1` are inactive: -0.171, inactive: 0.153 and inactive: -0.45.
The like results for `N=C(N)N/N=C1\CCc2c(C(=N)N)cccc21` [Sardomozide] were, in that order, inactive: 1.04, inactive: -0.973 and inactive: -0.484.
As for `CC[C@H](C)[C@H](NC(=O)[C@H](C)NC(=O)[C@@H](N)C(C)C)C(=O)N[C@H](C(=O)N[C@H](C(=O)N[C@@H](CC(C)C)C(=O)N[C@H](C(=O)N[C@@H](CCCCN)C(=O)O)C(C)C)C(C)C)[C@@H](C)O`, the TEAD-luciferase reporter activity (compound concentration: 200 nM) is inactive: -1.1, the TEAD-luciferase reporter activity (compound concentration: 2 uM) is inactive: -1.59 and the TEAD-luciferase reporter activity (compound concentration: 10 uM) was inactive: -0.477.
As for `COC(=O)COc1cccc(CCc2nc(-c3ccccc3)c(-c3ccccc3)o2)c1`, the TEAD-luciferase reporter activity is inactive: 4.19 (compound concentration: 200 nM), inactive: -0.57 (compound concentration: 2 uM) and inactive: 3.87 (compound concentration: 10 uM).
The like results for `CC12CCC(=O)C=C1CCC1C2C(O)CC2(C=O)C(C(=O)CO)CCC12` (stereo unspecified) were, in that order, inactive: -0.0149, inactive: -1.05 and inactive: 0.925.
The like results for `O=[N+]([O-])CC(SCc1ccc(Cl)cc1)c1ccccc1` (stereo unspecified) were, in that order, inactive: -1.5, inactive: 0.199 and inactive: 1.19.
In the same order, the values of `CCN(CC)CCCN(c1ccccc1)C1Cc2ccccc2C1` [aprindine] are inactive: -0.74, inactive: 2.48 and inactive: 4.92.
With `CC(C)c1oc(-c2ccc(Cl)cc2Cl)nc1CCC(=O)c1ccc(OC(C)(C)C(=O)O)cc1`, the TEAD-luciferase reporter activity is, setting by setting: (compound concentration: 200 nM) inactive: -0.809; (compound concentration: 2 uM) inactive: -0.918; (compound concentration: 10 uM) inactive: 2.22.
In the case of `N=C(N)c1ccc(C=C2c3ccccc3-c3ccccc32)cc1`, the TEAD-luciferase reporter activity is inactive: -0.311 (compound concentration: 200 nM), inactive: -1.4 (compound concentration: 2 uM) and inactive: -0.832 (compound concentration: 10 uM).
`CCN(Cc1cc(C(F)(F)F)ccc1-c1cc(CC(=O)O)ccc1OC)C(=O)NCc1ccccc1`: the TEAD-luciferase reporter activity is, setting by setting: (compound concentration: 200 nM) inactive: 0.377; (compound concentration: 10 uM) inactive: 2.36.
On to `O=C(O)c1cccc(C[C@H]2COc3ccc(OCc4nc5cc(F)ccc5s4)cc3[C@H]2O)c1`, for which the TEAD-luciferase reporter activity was inactive: -1.03 (compound concentration: 200 nM), inactive: -0.484 (compound concentration: 2 uM) and inactive: -0.706 (compound concentration: 10 uM).
The like results for `COc1cc2c(cc1OC)C(CCc1ccccc1)=NCC2` were, in that order, inactive: -3.66, inactive: -1.17 and inactive: 0.0471.
The like results for `Cc1cc(OCCN(C)C)c(C(C)C)cc1OC(=O)CC(C)(C)SN=O` were, in that order, inactive: -1.12, inactive: 0.912 and inactive: -0.961.
The like results for `OCc1ccccc1O[C@@H]1O[C@H](CO)[C@@H](O)[C@H](O)[C@H]1O` [Salicin] were, in that order, inactive: -0.475, inactive: -0.504 and inactive: 3.46.
Take `Cc1ccc2c(-c3ccccc3)nc(=O)n(C(C)C)c2c1` [proquazone]: the TEAD-luciferase reporter activity (compound concentration: 200 nM) was inactive: -1.94, the TEAD-luciferase reporter activity (compound concentration: 2 uM) was inactive: -0.836 and the TEAD-luciferase reporter activity (compound concentration: 10 uM) was inactive: -0.34.
Regarding `CCC[C@H](NC(=O)[C@@H]1[C@H]2CCC[C@H]2CN1C(=O)[C@@H](NC(=O)[C@@H](NC(=O)c1cnccn1)C1CCCCC1)C(C)(C)C)C(=O)C(=O)NC1CC1` [telaprevir], the TEAD-luciferase reporter activity by setting is: (compound concentration: 200 nM) inactive: -0.79; (compound concentration: 2 uM) inactive: -1.89; (compound concentration: 10 uM) inactive: -1.03.
In the same order, the values of `C[C@H](N)C(=O)N1CCC[C@H]1C(=O)NCC(=O)N1CCC[C@H]1C(=O)N[C@@H](CCCNC(=N)N)C(=O)O` are inactive: -1.18, inactive: 1.31 and inactive: -0.212.
Turning to `C[C@]12CC[C@@H]3c4ccc(O)cc4CC[C@H]3[C@@H]1CC[C@H]2O` [alpha-estradiol], the TEAD-luciferase reporter activity (compound concentration: 200 nM) was inactive: 3.55, the TEAD-luciferase reporter activity (compound concentration: 2 uM) is inactive: -0.381 and the TEAD-luciferase reporter activity (compound concentration: 10 uM) is inactive: -0.642.
In the case of `COCC(O)CN(C(C)=O)c1c(I)c(C(=O)NCC(O)CO)c(I)c(C(=O)NCC(O)CO)c1I` (stereo unspecified) [iopentol], the TEAD-luciferase reporter activity (compound concentration: 200 nM) is inactive: -0.856, the TEAD-luciferase reporter activity (compound concentration: 2 uM) is inactive: -0.687 and the TEAD-luciferase reporter activity (compound concentration: 10 uM) was inactive: 0.202.
As to `CC(C)C[C@H](NC(=O)[C@H](CC(C)C)NC(=O)[C@@H](Cc1c[nH]c2ccccc12)NC(=O)[C@H](Cc1ccccc1)NC(=O)[C@@H](Cc1c[nH]c2ccccc12)NC(=O)[C@H](CCC(N)=O)NC(=O)[C@@H](Cc1ccccc1)NC(=O)[C@@H]1CCCN1C(=O)[C@H](CCCCN)NC(=O)[C@@H]1CCCN1C(=O)[C@H](N)CCCNC(=N)N)C(N)=O`, the TEAD-luciferase reporter activity is inactive: -1.54 (compound concentration: 200 nM), inactive: 1.07 (compound concentration: 2 uM) and inactive: -0.697 (compound concentration: 10 uM).
The like results for `CCNCc1cc(C(C)(C)C)c(O)c(C(C)(C)C)c1` were, in that order, inactive: -2.87, inactive: -1.06 and inactive: 4.63.
In the case of `Cc1ccccc1CN1CCCC12Cc1ccccc1CNC2=O` (stereo unspecified), the TEAD-luciferase reporter activity (compound concentration: 200 nM) was inactive: 2.18 and the TEAD-luciferase reporter activity (compound concentration: 10 uM) is inactive: 0.617.

For the origin of these results see the supplement of paper PMC10735217.
